Measured values: patent US20100015130A1
No constants are given. Whether binding was seen depends on the method and setting. Binding seen in cells or lysates may run through a third protein. Some entries that bind do so weakly or less than the wild type.

Protein sequences, listed by entry. Tags and fused reporters are not part of them.
UniProt Q9WV60: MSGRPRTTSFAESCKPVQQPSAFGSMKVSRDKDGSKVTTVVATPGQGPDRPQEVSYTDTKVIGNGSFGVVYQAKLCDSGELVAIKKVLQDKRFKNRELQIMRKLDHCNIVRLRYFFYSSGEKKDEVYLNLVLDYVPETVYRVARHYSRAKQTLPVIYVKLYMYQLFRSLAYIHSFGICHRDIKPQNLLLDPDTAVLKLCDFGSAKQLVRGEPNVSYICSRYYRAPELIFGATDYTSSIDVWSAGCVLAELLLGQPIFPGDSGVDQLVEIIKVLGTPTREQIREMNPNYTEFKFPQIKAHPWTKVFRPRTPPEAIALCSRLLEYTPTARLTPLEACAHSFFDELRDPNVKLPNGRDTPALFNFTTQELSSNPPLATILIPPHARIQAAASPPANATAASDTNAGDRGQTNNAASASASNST

Assays:
[1] = target: endogenous GSK3β in mouse embryonic brain lysate (mouse) (UniProt Q9WV60); assay: co-immunoprecipitation from embryonic brain lysate
[2] = target: endogenous GSK3β in mouse embryonic brain lysate (mouse) (UniProt Q9WV60); assay: co-immunoprecipitation with anti-DISC1, immunoblot with anti-GSK3β, FIG. 4e

B1: mouse DISC1 (Disrupted In Schizophrenia 1), endogenous in mouse embryonic brain lysate (protein, UniProt Q811T9 1-852, looked up)
chain: MQGGGPRGAPIHSPSHGADSGHGLPPAVAPQRRRLTRRPGYMRSTAGSGIGFLSPAVGMPHPSSAGLTGQQSQHSQSKAGQCGLDPGSHCQASLVGKPFLKSSLVPAVASEGHLHPAQRSMRKRPVHFAVHSKNDSRQSERLTGSFKPGDSGFWQELLSSDSFKSLAPSLDAPWNKGSRGLKTVKPLASPALNGPADIASLPGFQDTFTSSFSFIQLSLGAAGERGEAEGCLPSREAEPLHQRPQEMAAEASSSDRPHGDPRHLWTFSLHAAPGLADLAQVTRSSSRQSECGTVSSSSSDTGFSSQDASSAGGRGDQGGGWADAHGWHTLLREWEPMLQDYLLSNRRQLEVTSLILKLQKCQEKVVEDGDYDTAETLRQRLEELEQEKGRLSWALPSQQPALRSFLGYLAAQIQVALHGATQRAGSDDPEAPLEGQLRTTAQDSLPASITRRDWLIREKQRLQKEIEALQARMSALEAKEKRLSQELEEQEVLLRWPGCDLMALVAQMSPGQLQEVSKALGETLTSANQAPFQVEPPETLRSLRERTKSLNLAVRELTAQVCSGEKLCSSLRRRLSDLDTRLPALLEAKMLALSGSCFSTAKELTEEIWALSSEREGLEMFLGRLLALSSRNSRRLGIVKEDHLRCRQDLALQDAAHKTRMKANTVKCMEVLEGQLSSCRCPLLGRVWKADLETCQLLMQSLQLQEAGSSPHAEDEEQVHSTGEAAQTAALAVPRTPHPEEEKSPLQVLQEWDTHSALSPHCAAGPWKEDSHIVSAEVGEKCEAIGVKLLHLEDQLLGAMYSHDEALFQSLQGELQTVKETLQAMILQLQPTKEAGEASASYPTAGAQETEA
[1]
  binding: binds
[2]
  binding: binds
